These results are taken from the supplement of paper PMC6411743.

Sequences of proteins named here, by UniProt entry; tags and fusion partners are left off. A change or cut given only in a name is not applied to a line headed by its entry.
UniProt Q8WY36: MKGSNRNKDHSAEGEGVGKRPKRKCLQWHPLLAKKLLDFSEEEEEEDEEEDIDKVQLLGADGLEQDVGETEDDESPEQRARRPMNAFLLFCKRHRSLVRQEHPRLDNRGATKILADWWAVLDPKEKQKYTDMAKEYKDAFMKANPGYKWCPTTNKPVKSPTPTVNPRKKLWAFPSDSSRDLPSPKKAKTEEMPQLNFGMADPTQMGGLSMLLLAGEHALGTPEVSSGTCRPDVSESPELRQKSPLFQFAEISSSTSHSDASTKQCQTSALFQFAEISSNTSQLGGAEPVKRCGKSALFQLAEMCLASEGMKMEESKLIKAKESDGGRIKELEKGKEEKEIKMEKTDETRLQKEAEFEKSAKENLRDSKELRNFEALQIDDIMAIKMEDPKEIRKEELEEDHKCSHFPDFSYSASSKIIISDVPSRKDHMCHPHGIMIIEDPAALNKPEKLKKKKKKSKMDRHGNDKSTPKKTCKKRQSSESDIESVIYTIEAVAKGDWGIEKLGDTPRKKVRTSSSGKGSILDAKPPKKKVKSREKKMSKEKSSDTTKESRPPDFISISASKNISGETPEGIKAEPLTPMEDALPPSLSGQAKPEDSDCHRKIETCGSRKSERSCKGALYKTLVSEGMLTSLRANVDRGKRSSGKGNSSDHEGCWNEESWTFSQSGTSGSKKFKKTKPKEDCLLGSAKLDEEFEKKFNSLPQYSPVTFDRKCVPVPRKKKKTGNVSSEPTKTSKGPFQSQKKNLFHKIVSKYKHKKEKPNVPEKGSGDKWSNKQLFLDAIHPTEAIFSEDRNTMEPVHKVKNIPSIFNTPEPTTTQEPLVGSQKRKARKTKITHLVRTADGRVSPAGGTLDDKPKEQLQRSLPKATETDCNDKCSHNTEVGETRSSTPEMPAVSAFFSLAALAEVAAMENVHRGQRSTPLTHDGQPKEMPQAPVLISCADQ
UniProt A3KN83: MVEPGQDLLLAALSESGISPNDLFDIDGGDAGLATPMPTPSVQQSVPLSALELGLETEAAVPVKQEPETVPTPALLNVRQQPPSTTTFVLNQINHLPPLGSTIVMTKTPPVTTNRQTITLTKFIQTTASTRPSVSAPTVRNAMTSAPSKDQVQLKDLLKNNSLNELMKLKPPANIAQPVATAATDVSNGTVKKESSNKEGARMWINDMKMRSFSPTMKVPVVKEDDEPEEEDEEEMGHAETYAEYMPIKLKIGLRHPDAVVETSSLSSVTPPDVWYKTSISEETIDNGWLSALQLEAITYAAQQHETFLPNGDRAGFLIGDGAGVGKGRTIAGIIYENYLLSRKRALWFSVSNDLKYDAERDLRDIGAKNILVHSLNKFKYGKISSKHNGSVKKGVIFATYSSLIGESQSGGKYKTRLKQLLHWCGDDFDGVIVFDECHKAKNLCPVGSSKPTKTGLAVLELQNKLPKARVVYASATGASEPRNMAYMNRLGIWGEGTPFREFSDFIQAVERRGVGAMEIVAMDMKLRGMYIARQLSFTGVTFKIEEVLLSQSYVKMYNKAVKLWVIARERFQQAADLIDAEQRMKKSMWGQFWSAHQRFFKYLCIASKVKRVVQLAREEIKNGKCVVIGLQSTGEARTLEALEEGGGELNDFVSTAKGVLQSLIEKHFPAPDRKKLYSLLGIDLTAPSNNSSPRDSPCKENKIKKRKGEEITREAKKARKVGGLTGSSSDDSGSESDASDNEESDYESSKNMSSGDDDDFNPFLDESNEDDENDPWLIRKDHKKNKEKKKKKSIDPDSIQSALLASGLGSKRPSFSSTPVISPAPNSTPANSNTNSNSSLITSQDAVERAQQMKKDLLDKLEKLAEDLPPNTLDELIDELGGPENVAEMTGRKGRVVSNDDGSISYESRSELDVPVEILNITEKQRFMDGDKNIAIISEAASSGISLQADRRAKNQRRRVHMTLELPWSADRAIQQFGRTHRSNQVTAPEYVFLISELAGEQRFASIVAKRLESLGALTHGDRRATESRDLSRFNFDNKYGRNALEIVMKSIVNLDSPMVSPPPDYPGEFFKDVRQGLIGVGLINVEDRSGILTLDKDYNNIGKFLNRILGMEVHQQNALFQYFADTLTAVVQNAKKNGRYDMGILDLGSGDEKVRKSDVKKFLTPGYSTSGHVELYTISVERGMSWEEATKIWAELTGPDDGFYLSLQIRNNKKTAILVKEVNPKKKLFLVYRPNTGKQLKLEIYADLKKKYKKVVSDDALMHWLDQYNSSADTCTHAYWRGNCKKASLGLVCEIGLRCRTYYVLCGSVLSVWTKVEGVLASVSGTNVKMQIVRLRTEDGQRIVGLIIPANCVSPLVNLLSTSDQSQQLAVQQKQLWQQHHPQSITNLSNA
UniProt Q8TD31: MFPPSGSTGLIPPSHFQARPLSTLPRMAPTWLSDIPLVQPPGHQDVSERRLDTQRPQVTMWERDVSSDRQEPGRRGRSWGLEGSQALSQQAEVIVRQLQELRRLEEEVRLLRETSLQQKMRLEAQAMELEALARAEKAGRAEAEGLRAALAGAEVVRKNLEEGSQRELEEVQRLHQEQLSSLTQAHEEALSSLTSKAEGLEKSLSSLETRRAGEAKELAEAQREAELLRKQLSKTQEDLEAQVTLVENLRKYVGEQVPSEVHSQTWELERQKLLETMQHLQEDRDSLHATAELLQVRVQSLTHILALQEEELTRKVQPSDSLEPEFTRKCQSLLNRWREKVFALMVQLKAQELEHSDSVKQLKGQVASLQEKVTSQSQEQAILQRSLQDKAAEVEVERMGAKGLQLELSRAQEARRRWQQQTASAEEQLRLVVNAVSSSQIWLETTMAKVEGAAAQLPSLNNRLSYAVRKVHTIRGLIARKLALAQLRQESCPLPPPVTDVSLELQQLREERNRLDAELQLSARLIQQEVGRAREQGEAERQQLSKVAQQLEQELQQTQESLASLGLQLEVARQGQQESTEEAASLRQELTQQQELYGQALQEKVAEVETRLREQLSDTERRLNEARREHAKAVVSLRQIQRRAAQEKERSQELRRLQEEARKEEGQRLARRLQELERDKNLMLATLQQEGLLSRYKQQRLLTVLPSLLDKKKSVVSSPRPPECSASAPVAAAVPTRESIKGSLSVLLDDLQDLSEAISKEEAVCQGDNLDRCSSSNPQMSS
UniProt P61086: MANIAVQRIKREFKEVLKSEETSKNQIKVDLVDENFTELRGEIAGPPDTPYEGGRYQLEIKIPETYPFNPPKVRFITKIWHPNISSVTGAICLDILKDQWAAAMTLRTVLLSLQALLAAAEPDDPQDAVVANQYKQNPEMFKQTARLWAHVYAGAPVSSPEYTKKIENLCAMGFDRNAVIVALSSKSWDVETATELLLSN
UniProt A6NHX0: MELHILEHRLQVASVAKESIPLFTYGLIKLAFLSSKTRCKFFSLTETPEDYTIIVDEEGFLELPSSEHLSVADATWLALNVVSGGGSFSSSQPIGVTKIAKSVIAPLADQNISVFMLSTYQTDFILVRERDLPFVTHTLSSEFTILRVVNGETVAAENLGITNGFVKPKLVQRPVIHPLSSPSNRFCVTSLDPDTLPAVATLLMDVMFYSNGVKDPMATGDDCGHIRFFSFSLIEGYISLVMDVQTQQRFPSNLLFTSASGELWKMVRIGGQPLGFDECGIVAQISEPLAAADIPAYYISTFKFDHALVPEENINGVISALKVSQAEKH
UniProt Q86WB0: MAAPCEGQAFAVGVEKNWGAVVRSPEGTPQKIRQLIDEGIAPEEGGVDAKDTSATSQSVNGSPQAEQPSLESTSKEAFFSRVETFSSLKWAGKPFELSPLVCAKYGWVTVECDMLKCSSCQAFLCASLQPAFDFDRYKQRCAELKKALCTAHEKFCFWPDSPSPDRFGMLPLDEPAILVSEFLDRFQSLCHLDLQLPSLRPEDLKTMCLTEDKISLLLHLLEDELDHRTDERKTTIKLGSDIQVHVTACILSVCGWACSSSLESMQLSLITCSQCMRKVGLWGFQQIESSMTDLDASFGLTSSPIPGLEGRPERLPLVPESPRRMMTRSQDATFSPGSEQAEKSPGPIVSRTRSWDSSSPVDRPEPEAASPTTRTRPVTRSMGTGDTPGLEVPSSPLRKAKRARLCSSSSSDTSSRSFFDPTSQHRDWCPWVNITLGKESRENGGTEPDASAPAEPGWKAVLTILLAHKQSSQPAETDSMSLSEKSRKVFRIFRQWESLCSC
UniProt Q8WVF1: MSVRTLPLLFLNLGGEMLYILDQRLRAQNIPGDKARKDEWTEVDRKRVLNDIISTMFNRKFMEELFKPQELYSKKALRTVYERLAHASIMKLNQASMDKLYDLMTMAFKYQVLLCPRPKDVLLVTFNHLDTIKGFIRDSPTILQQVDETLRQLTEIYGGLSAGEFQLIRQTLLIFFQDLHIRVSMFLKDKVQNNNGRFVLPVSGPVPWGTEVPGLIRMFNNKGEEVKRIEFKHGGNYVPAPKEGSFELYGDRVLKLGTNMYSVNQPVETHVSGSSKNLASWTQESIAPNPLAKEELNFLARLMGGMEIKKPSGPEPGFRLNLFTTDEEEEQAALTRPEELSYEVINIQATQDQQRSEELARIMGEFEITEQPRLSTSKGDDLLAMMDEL
UniProt P43307: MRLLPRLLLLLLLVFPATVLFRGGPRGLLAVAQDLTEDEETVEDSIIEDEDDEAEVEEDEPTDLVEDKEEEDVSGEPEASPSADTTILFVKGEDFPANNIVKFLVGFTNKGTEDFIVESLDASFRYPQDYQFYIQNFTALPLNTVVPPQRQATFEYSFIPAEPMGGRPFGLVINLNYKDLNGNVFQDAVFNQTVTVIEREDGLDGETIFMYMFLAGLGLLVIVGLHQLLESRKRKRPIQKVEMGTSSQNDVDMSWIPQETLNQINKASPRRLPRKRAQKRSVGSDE
UniProt Q9NTI5: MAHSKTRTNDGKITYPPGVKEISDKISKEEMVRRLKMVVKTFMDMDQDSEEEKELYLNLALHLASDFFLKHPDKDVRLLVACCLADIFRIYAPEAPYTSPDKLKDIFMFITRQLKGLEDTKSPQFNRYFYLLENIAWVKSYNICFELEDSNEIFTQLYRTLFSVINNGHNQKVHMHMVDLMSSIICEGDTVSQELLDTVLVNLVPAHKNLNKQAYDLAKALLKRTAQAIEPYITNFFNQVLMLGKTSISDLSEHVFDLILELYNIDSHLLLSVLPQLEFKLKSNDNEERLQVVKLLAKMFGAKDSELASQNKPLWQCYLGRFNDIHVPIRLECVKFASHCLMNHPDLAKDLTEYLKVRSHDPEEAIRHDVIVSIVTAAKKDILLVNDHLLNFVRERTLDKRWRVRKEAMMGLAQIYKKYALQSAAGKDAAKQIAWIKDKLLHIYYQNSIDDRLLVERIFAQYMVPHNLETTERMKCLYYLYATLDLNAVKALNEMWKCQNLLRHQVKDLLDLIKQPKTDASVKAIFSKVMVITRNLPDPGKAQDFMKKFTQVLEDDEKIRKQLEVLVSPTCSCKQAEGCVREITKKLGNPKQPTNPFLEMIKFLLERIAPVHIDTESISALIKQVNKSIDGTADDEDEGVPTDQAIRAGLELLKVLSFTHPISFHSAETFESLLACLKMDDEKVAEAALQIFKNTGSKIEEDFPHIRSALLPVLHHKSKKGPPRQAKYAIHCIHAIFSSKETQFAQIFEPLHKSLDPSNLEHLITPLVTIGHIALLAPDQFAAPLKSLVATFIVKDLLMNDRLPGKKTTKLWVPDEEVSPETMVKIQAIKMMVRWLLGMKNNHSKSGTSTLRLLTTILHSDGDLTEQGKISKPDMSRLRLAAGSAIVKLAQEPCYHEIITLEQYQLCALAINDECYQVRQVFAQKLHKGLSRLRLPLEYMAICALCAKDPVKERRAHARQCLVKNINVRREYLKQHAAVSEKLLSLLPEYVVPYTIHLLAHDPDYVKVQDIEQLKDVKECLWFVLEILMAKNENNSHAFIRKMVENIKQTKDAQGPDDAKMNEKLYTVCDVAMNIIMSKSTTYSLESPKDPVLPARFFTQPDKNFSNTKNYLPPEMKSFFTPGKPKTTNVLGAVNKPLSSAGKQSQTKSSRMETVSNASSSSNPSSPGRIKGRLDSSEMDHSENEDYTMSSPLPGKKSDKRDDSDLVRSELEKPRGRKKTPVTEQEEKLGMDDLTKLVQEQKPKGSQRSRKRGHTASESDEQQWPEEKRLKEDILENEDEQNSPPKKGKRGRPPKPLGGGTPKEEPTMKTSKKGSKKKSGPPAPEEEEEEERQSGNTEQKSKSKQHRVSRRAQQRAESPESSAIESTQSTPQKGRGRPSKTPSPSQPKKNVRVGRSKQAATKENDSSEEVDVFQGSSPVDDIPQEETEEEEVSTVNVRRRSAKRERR

± gives the standard deviation of the averaged measurements. The list shows a part of the results, in another mix than the full data. Most entries show no effect beyond the scatter of the controls.

Compound in the assay: Nc1ncnc2c1ncn2[C@@H]1O[C@H](COP(=O)(O)OP(=O)(O)OP(=O)(O)O)[C@@H](O)[C@H]1O [adenosine triphosphate]
Description: NP40-soluble protein abundance relative to vehicle (solubility fold change) (ratio); higher = more soluble protein in presence of ATP. The following applies: concentration: 0.1mM. An outline of the steps: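 Crude Jurkat lysate, prepared by Dounce homogenisation, was exposed to eight concentrations from 0.1 to 10 mM for 10 min at room temperature and then 3 min at 37 °C. Solubilisation used 0.8% NP40 with benzonase for 60 min at 4 °C, followed by ultracentrifugation and TMT labelling of the supernatant for LC-MS/MS. After vsn normalisation of intensities, each value is the fold change against the detergent-processed vehicle within each replicate, across three independent experiments.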
Take “A2A2F0 and related entries (UniProt Q86X10)”: the NP40-soluble protein abundance was 1.042 ± 0.0072.
As for “B0QZ65 and related entries (UniProt Q14C86)”, the figure is 1.01 ± 0.028; as for “D6RD47 and related entries (UniProt P62266)”, 0.915 ± 0.062; as for “C9JA69 and related entries (UniProt Q8WY36)”, 1.1 ± 0.093.
Next, “B8ZZY7 and related entries (UniProt P84101)”: 0.969 ± 0.053; MEX3A (UniProt A1L020): 1.01 ± 0.1.
UniProt A3KN83 and related entries: the NP40-soluble protein abundance was determined as 0.974 ± 0.031.
In the case of “A0A0G2JJ47|A0A0G2JP87|A2ABH1 and related entries (UniProt Q8TD31)”, the NP40-soluble protein abundance was 1.06 ± 0.18.
As for “B9EGA3 and related entries (UniProt Q92925)”, the figure is 0.975 ± 0.051.
Next, “D6RDM7 and related entries (UniProt P61086)”: 0.966 ± 0.058; “B4DZS0 and related entries (UniProt O76075)”: 1.05 ± 0.045.
Next, “B7Z9U0 and related entries (UniProt Q9UFF9)”: 1.04 ± 0.081; “B1AMW1 and related entries (UniProt P19256)”: 0.894 ± 0.11; “A8MTY9 and related entries (UniProt O14972)”: 1.11 ± 0.13.
Consider “A0A140T9D0|Q8NBI6 and related entries (UniProt Q8NBI6)”, for which the NP40-soluble protein abundance turned out to be 0.919 ± 0.056.
As for CCDC88B (UniProt A6NC98), the NP40-soluble protein abundance worked out at 0.992 ± 0.039.
Take “B9ZVU2 and related entries (UniProt Q9ULA0)”: the NP40-soluble protein abundance came out at 1.01 ± 0.027.
Next, A0A0U1RRB3|Q8IYT2 (UniProt Q8IYT2): 1.05 ± 0.053; “B3KS98 and related entries (UniProt O15372)”: 0.939 ± 0.049.
Next, UniProt A6NHX0: 1.04 ± 0.18; “B1AM27 and related entries (UniProt O14795)”: 1.02 ± 0.021; “D4PHA4 and related entries (UniProt Q86WP2)”: 1.05 ± 0.092.
On to “C9J0I9 and related entries (UniProt Q86WB0)”, for which the NP40-soluble protein abundance was 1.02 ± 0.024.
As for UniProt A6QL63 and related entries, the figure is 1.02 ± 0.039; as for LIPT2 (UniProt A6NK58), 1.01 ± 0.069.
As for “B0YIW6 and related entries (UniProt P48444)”, the figure is 1.04 ± 0.053.
As for “C9JF58 and related entries (UniProt Q8WVF1)”, the figure is 1.01 ± 0.058.
Consider “B4DJV2 and related entries (UniProt O75390)”, for which the NP40-soluble protein abundance is 0.78 ± 0.22.
Next, UniProt A4D1P6 and related entries: 0.947 ± 0.12.
As for “A0A0U1RRB6|Q9Y2D4 and related entries (UniProt Q9Y2D4)”, the figure is 1.01 ± 0.06.
As for “C9IZQ1 and related entries (UniProt P43307)”, the figure is 0.953 ± 0.077; as for “A9IYQ1 and related entries (UniProt Q9NTI5)”, 1.01 ± 0.046.
“D3YTA9 and related entries (UniProt H7BYZ3+F6U1T9+P63098+D3YTA9)”: the NP40-soluble protein abundance was determined as 0.937 ± 0.012.
On to “B4DEM9 and related entries (UniProt Q9Y2S7)”, for which the NP40-soluble protein abundance was 1.08 ± 0.12.
As for “A3KFL2 and related entries (UniProt Q13868)”, the figure is 1.07 ± 0.024; as for “B4DDF4 and related entries (UniProt Q99439)”, 0.932 ± 0.025.
Take “C9IYN7 and related entries (UniProt Q0PNE2)”: the NP40-soluble protein abundance was determined as 1.04 ± 0.12.
With “B4DR61 and related entries (UniProt P61619)”, the NP40-soluble protein abundance was 1.03 ± 0.11.
